# Reference: the supplement of paper PMC11732987, “Enantioselective OTUD7B fragment discovery through chemoproteomics screening and high-throughput optimisation” (Communications Chemistry, 2025)
# The list shows a part of the results. The data scatter; read single values as rough.
# Tested on: T1, QSER1 C1121
# T1 sequence (whole entry): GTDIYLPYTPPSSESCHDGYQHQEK
# Test: log2 mean competition ratio of IA-DTB cysteine labelling (DMSO/compound) (log2 ratio); higher = stronger cysteine engagement by compound
# Settings: 50 µM; treatment time: 4 h; cell line lysate: HEK293T
# Procedure: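 IA-DTB competitive cysteine chemoproteomics in HEK293T RIPA lysate. Lysates were treated with compound 29 or 30 at 50 or 200 µM for 4 h, then IA-DTB (500 µM, 1 h), trypsin-digested, NeutrAvidin-enriched and analysed by diaPASEF. Competition ratio = intensity DMSO / intensity compound (n=4 treated, n=64 DMSO); binding: mean log2 CR ≥ 1 and p ≤ 0.05 plus QC filters. Target is the cysteine site.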
row,SMILES,log2 mean competition ratio
1,O=C(CCl)N[C@@H]1CCCc2ccccc21,-0.216
2,O=C(CCl)N[C@H]1CCCc2ccccc21,-0.0187

# Same assay, conditions: 200 µM; treatment time: 4 h; cell line lysate: HEK293T
row,SMILES,log2 mean competition ratio
1,O=C(CCl)N[C@@H]1CCCc2ccccc21,0.496
2,O=C(CCl)N[C@H]1CCCc2ccccc21,0.366
